Laboratory results: PubChem BioAssay AID1508597 (Cure First, 2020)

- Assay: 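Genes whose silencing sensitises or protects ovarian cancer cells against rucaparib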 (primary screen)
- Cells: human ovarian carcinoma lines grown from tumours: OCI-P5x (papillary serous) and OCI-C5x (clear cell)
- Knock-down reagent: siRNA pool against human genes, 1.25 pmol siRNA per well
- Duration: 72 h or 96 h, depending on the cell culture
- Conditions: rucaparib 20 µM (about IC30) or vehicle, present until read-out
- Detection: 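Luminescent ATP-based viability assay read 72 or 96 h after transfection, depending on culture, given as normalised percent viability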
- Direction: viability, normalised: higher = more viable cells remaining
- Call rule: 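Active when normalised viability falls below 80 percent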
- Meaning of the calls: active = viability under 80%; inactive = viability 80% or more
The deposit covers about 2,100 reagents; below is a part drawn at random. 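Calls flag viability under 80% in either arm, not effects specific to rucaparib; the reference for percent is not stated.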 Not stated in the record: the 100% reference.

viability, normalised (%)	activity call	gene knocked down	rucaparib or vehicle	cell line	technical replicate
61.7	active	GCH1 (GeneID 2643)	Rucaparib	OCI-C5x (clear cell)	1
34.5	active	GCH1 (GeneID 2643)	Rucaparib	OCI-C5x (clear cell)	2
50.7	active	GCH1 (GeneID 2643)	Rucaparib	OCI-C5x (clear cell)	3
72	active	GCH1 (GeneID 2643)	Rucaparib	OCI-P5x (serous)	1
74.5	active	GCH1 (GeneID 2643)	Rucaparib	OCI-P5x (serous)	2
60.9	active	GCH1 (GeneID 2643)	Rucaparib	OCI-P5x (serous)	3
45.4	active	GCH1 (GeneID 2643)	Vehicle	OCI-C5x (clear cell)	1
59.4	active	GCH1 (GeneID 2643)	Vehicle	OCI-C5x (clear cell)	2
54.2	active	GCH1 (GeneID 2643)	Vehicle	OCI-C5x (clear cell)	3
77.1	active	GCH1 (GeneID 2643)	Vehicle	OCI-P5x (serous)	1
71.3	active	GCH1 (GeneID 2643)	Vehicle	OCI-P5x (serous)	2
77	active	GCH1 (GeneID 2643)	Vehicle	OCI-P5x (serous)	3
53.2	active	MAP4K1 (GeneID 11184)	Rucaparib	OCI-C5x (clear cell)	1
56.4	active	MAP4K1 (GeneID 11184)	Rucaparib	OCI-C5x (clear cell)	2
90.7	inactive	MAP4K1 (GeneID 11184)	Rucaparib	OCI-C5x (clear cell)	3
83.4	inactive	MAP4K1 (GeneID 11184)	Rucaparib	OCI-P5x (serous)	1
90.2	inactive	MAP4K1 (GeneID 11184)	Rucaparib	OCI-P5x (serous)	2
91.2	inactive	MAP4K1 (GeneID 11184)	Rucaparib	OCI-P5x (serous)	3
70.5	active	MAP4K1 (GeneID 11184)	Vehicle	OCI-C5x (clear cell)	1
64.9	active	MAP4K1 (GeneID 11184)	Vehicle	OCI-C5x (clear cell)	2
49.4	active	MAP4K1 (GeneID 11184)	Vehicle	OCI-C5x (clear cell)	3
84.9	inactive	MAP4K1 (GeneID 11184)	Vehicle	OCI-P5x (serous)	1
83.1	inactive	MAP4K1 (GeneID 11184)	Vehicle	OCI-P5x (serous)	2
67.6	active	MAP4K1 (GeneID 11184)	Vehicle	OCI-P5x (serous)	3
42.8	active	CCNH (GeneID 902)	Rucaparib	OCI-C5x (clear cell)	1
43.5	active	CCNH (GeneID 902)	Rucaparib	OCI-C5x (clear cell)	2
43.8	active	CCNH (GeneID 902)	Rucaparib	OCI-C5x (clear cell)	3
66.9	active	CCNH (GeneID 902)	Rucaparib	OCI-P5x (serous)	1
71.6	active	CCNH (GeneID 902)	Rucaparib	OCI-P5x (serous)	2
56.1	active	CCNH (GeneID 902)	Rucaparib	OCI-P5x (serous)	3
65.1	active	CCNH (GeneID 902)	Vehicle	OCI-C5x (clear cell)	1
39.4	active	CCNH (GeneID 902)	Vehicle	OCI-C5x (clear cell)	2
37.2	active	CCNH (GeneID 902)	Vehicle	OCI-C5x (clear cell)	3
48.5	active	CCNH (GeneID 902)	Vehicle	OCI-P5x (serous)	1
66.1	active	CCNH (GeneID 902)	Vehicle	OCI-P5x (serous)	2
48.3	active	CCNH (GeneID 902)	Vehicle	OCI-P5x (serous)	3
63.5	active	YJU2B (GeneID 81576)	Rucaparib	OCI-C5x (clear cell)	1
74.2	active	YJU2B (GeneID 81576)	Rucaparib	OCI-C5x (clear cell)	2
69.9	active	YJU2B (GeneID 81576)	Rucaparib	OCI-C5x (clear cell)	3
85.6	inactive	YJU2B (GeneID 81576)	Rucaparib	OCI-P5x (serous)	1
74.1	active	YJU2B (GeneID 81576)	Rucaparib	OCI-P5x (serous)	2
86.7	inactive	YJU2B (GeneID 81576)	Rucaparib	OCI-P5x (serous)	3
69.8	active	YJU2B (GeneID 81576)	Vehicle	OCI-C5x (clear cell)	1
59.3	active	YJU2B (GeneID 81576)	Vehicle	OCI-C5x (clear cell)	2
59.4	active	YJU2B (GeneID 81576)	Vehicle	OCI-C5x (clear cell)	3
77.2	active	YJU2B (GeneID 81576)	Vehicle	OCI-P5x (serous)	1
78.7	active	YJU2B (GeneID 81576)	Vehicle	OCI-P5x (serous)	2
78.7	active	YJU2B (GeneID 81576)	Vehicle	OCI-P5x (serous)	3
34.8	active	NAP1L1 (GeneID 4673)	Rucaparib	OCI-C5x (clear cell)	1
43.7	active	NAP1L1 (GeneID 4673)	Rucaparib	OCI-C5x (clear cell)	2
46.7	active	NAP1L1 (GeneID 4673)	Rucaparib	OCI-C5x (clear cell)	3
30.5	active	NAP1L1 (GeneID 4673)	Rucaparib	OCI-P5x (serous)	1
37.9	active	NAP1L1 (GeneID 4673)	Rucaparib	OCI-P5x (serous)	2
37.6	active	NAP1L1 (GeneID 4673)	Rucaparib	OCI-P5x (serous)	3
39.2	active	NAP1L1 (GeneID 4673)	Vehicle	OCI-C5x (clear cell)	1
53.8	active	NAP1L1 (GeneID 4673)	Vehicle	OCI-C5x (clear cell)	2
49	active	NAP1L1 (GeneID 4673)	Vehicle	OCI-C5x (clear cell)	3
42.8	active	NAP1L1 (GeneID 4673)	Vehicle	OCI-P5x (serous)	1
48.4	active	NAP1L1 (GeneID 4673)	Vehicle	OCI-P5x (serous)	2
113	inactive	NAP1L1 (GeneID 4673)	Vehicle	OCI-P5x (serous)	3

No new results follow: an excerpt of the list.
viability, normalised (%)	activity call	gene knocked down	rucaparib or vehicle	cell line	technical replicate
90.2	inactive	MAP4K1 (GeneID 11184)	Rucaparib	OCI-P5x (serous)	2
91.2	inactive	MAP4K1 (GeneID 11184)	Rucaparib	OCI-P5x (serous)	3
70.5	active	MAP4K1 (GeneID 11184)	Vehicle	OCI-C5x (clear cell)	1
64.9	active	MAP4K1 (GeneID 11184)	Vehicle	OCI-C5x (clear cell)	2
